Source: patent publication US20240317852A1 (Molecular Partners, published 2024)
Results are given in words; binding and its absence hold for the method and conditions named. Some results given as binding are weak or reduced against the parent protein; the word gives no strength.

Protein sequences, listed by entry. Tags and fused reporters are not part of them. Residues count along the entry.
UniProt P20138, residues 18-364: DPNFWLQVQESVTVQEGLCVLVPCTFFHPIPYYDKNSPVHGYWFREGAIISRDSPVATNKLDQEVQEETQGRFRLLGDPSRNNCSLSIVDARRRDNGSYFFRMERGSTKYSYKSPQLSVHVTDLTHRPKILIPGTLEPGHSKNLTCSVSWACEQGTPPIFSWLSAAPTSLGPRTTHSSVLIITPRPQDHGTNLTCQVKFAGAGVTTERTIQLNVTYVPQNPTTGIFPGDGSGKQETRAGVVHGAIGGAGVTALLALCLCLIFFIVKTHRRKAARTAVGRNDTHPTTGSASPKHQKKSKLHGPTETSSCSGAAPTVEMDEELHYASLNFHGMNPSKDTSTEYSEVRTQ

What was measured:
[1] = target: human CD33 expressed on Molm-13 tumor cells (human) (UniProt P20138); assay: flow cytometry on Molm-13 N1 cells, detection with rabbit anti-DARPin antibody and Alexa Fluor 488 anti-rabbit antibody, MFI AF488
[2] = target: biotinylated human CD33 full-length extracellular domain (residues 18-259) with C-terminal Fc tag and Avi tag (human) (UniProt P20138); assay: SPR (ProteOn), bio.hCD33 immobilized on the chip, DARPin as analyte at a single concentration of 100 nM, 1:1 Langmuir fit

| Binder | binding [1] | binding [2] |
| --- | --- | --- |
| DARPin® protein #29 in monospecific (single domain) format (designed binder, the same molecule is used here) MRGSHHHHHHGSDLGVKLLLAAERGQLDEVRILLKAGADVNAKDIAEGYTPLHIAAYQGHLEIVEVLLKAGADVNAKDRYGKTPLHLAAIGGHLEIVEVLLKAGADVNAQDNKGSTPADLAADYGHQDIAEVLQKAA | binds | binds |
| DARPin® protein #30 in monospecific (single domain) format (designed binder, the same molecule is used here) MRGSHHHHHHGSDLGKKLLLAAERGQLDEVRILLKAGADVNAKDRAEGYTPLHIAAYQGHLEIVEVLLKAGADVNAKDRYGKTPLHLAAISGHLEIVEVLLKAGADVNAQDNKGSTPADLAADYGHQDIAEVLQKAA | binds | binds |
